Results on 2 molecules are retold here after PMC10356794.

In one assay the target is Flag-tagged Tfr1 (UniProt Q62351). The assay can be described thus: co-IP; HEK293T cells transiently transfected for 48 h with Musclin or Musclin-Fc and Flag-Tfr1 or HA-HSL; whole-cell lysates, immunoprecipitation, immunoblot. On the technique in general: In western blotting, separated proteins are transferred to a membrane and probed.
The target of the next assay is T1, HA-tagged HSL (UniProt P54310).
T1 sequence: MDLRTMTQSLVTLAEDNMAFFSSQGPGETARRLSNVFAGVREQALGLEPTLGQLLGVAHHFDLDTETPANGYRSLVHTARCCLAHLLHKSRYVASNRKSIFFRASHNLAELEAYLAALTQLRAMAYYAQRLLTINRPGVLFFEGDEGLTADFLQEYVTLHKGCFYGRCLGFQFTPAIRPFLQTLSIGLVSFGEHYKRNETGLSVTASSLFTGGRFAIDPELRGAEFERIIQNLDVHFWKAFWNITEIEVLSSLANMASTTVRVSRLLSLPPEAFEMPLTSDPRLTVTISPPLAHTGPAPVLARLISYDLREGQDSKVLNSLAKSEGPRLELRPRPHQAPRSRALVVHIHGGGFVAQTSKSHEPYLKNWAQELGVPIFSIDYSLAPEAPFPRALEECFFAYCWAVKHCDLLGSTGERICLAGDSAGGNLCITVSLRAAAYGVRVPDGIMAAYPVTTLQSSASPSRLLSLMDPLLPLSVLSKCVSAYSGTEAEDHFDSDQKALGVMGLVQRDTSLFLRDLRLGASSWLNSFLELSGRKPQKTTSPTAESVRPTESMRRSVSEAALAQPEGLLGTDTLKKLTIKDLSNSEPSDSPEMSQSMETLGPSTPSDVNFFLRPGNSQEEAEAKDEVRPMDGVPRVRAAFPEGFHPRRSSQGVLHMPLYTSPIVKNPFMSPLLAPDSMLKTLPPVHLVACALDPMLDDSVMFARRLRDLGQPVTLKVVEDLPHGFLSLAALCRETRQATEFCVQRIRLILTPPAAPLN
The description is as above.

The target of assay [1] is Tfr1, endogenous in mouse inguinal white adipose tissue (iWAT) (mouse (endogenous in iWAT)) (UniProt Q62351). The assay is described as follows: SEAP fusion binding assay on frozen tissue sections; concentrated conditioned medium with SEAP or SEAP-Musclin on frozen mouse tissue sections, 45 min at room temperature; bound alkaline phosphatase developed with NBT/BCIP; iWAT of control and Tfr1-iAKO mice.

Results are given in words; binding and its absence hold for the method and conditions named. For part of these data: Binding seen in cells or lysates may run through a third protein. Some binding calls cover weakened binding; strength is not graded here. Sequences can lack the tags named with a protein.

B1: Musclin-Fc (Fc-tagged Musclin), expressed in HEK293T (Fc fusion, UniProt P61364 26-130)
chain: FSVDLASQEFGTASLQSPPTAREEKSATELSAKLLRLDDLVSLENDVFETKKKRSFSGFGSPLDRLSAGSVEHRGKQRKAVDHSKKRFGIPMDRIGRNRLSSSRG
As for B1, the binding entry with Flag-tagged Tfr1 is on record as “binds”; in the assay with HA-tagged HSL, “no binding”.

B2: SEAP-Musclin fusion protein (ligand, UniProt P61364 26-130)
chain: B1 chain
As to B2, the binding entry in assay [1] is given as “binds”.
